{
  "source": "the supplement of paper PMC8728848",
  "test_in_all_cases": "glycan array binding signal (z-score within array); higher = stronger binding",
  "details_in_all_cases": "glycan notation: IUPAC condensed, linker removed",
  "key": {"Fuc(a1-2)Gal": {"biological_target": "Fuc(a1-2)Gal", "outline": "(§1)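 Negative Z-scores can be read as non-binding. The Z-score is calculated within each array and then averaged across arrays of one protein sequence at different concentrations or buffers and across linkers. Arrays, 3228 in all, were curated from the Consortium for Functional Glycomics database and kept only where the protein sequence was available.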"}, "Fuc(a1-2)Gal(b1-3)GalNAc": {"biological_target": "Fuc(a1-2)Gal(b1-3)GalNAc", "outline": "as §1"}, "[1]": {"biological_target": "Fuc(a1-2)Gal(b1-3)GalNAc(a1-3)[Fuc(a1-2)]Gal(b1-4)Glc", "outline": "as §1"}, "[2]": {"biological_target": "Fuc(a1-2)Gal(b1-3)GalNAc(a1-3)[Fuc(a1-2)]Gal(b1-4)GlcNAc", "outline": "as §1"}, "[3]": {"biological_target": "Fuc(a1-2)Gal(b1-3)GalNAc(b1-3)Gal", "outline": "as §1"}, "[4]": {"biological_target": "Fuc(a1-2)Gal(b1-3)GalNAc(b1-3)Gal(a1-4)Gal(b1-4)Glc", "outline": "as §1"}, "[5]": {"biological_target": "Fuc(a1-2)Gal(b1-3)GalNAc(b1-4)[Neu5Ac(a2-3)]Gal(b1-4)Glc", "outline": "as §1"}, "Fuc(a1-2)Gal(b1-3)GlcNAc": {"biological_target": "Fuc(a1-2)Gal(b1-3)GlcNAc", "outline": "as §1"}, "[6]": {"biological_target": "Fuc(a1-2)Gal(b1-3)GlcNAc(b1-2)Man(a1-3)[Fuc(a1-2)Gal(b1-3)GlcNAc(b1-2)Man(a1-6)]Man(b1-4)GlcNAc(b1-4)GlcNAc", "outline": "as §1"}, "[7]": {"biological_target": "Fuc(a1-2)Gal(b1-3)GlcNAc(b1-2)Man(a1-3)[Fuc(a1-2)Gal(b1-3)GlcNAc(b1-2)Man(a1-6)]Man(b1-4)GlcNAc(b1-4)[Fuc(a1-6)]GlcNAc", "outline": "as §1"}, "[8]": {"biological_target": "Fuc(a1-2)Gal(b1-3)GlcNAc(b1-3)Gal(b1-4)Glc", "outline": "as §1"}, "[9]": {"biological_target": "Fuc(a1-2)Gal(b1-3)GlcNAc(b1-3)GalNAc", "outline": "as §1"}, "[10]": {"biological_target": "Fuc(a1-2)Gal(b1-3)GlcNAc(b1-3)[Fuc(a1-2)Gal(b1-3)GlcNAc(b1-6)]GalNAc", "outline": "as §1"}, "[11]": {"biological_target": "Fuc(a1-2)Gal(b1-3)GlcNAc(b1-3)[Gal(b1-4)GlcNAc(b1-6)]Gal(b1-4)Glc", "outline": "as §1"}, "[12]": {"biological_target": "Fuc(a1-2)Gal(b1-3)GlcNAc(b1-3)[Neu5Ac(a2-6)Gal(b1-4)GlcNAc(b1-6)]Gal(b1-4)Glc", "outline": "as §1"}, "[13]": {"biological_target": "Fuc(a1-2)Gal(b1-3)GlcNAc6S", "outline": "as §1"}, "[14]": {"biological_target": "Fuc(a1-2)Gal(b1-3)[Fuc(a1-4)]GlcNAc", "outline": "as §1"}, "[15]": {"biological_target": "Fuc(a1-2)Gal(b1-3)[Fuc(a1-4)]GlcNAc(b1-2)Man(a1-3)[Fuc(a1-2)Gal(b1-3)[Fuc(a1-4)]GlcNAc(b1-2)Man(a1-3)]Man(b1-4)GlcNAc(b1-4)GlcNAc", "outline": "as §1"}, "[16]": {"biological_target": "Fuc(a1-2)Gal(b1-3)[Fuc(a1-4)]GlcNAc(b1-2)Man(a1-3)[Fuc(a1-2)Gal(b1-3)[Fuc(a1-4)]GlcNAc(b1-2)Man(a1-6)]Man(b1-4)GlcNAc(b1-4)[Fuc(a1-6)]GlcNAc(b1-4)[Fuc(a1-6)]GlcNAc", "outline": "as §1"}, "[17]": {"biological_target": "Fuc(a1-2)Gal(b1-3)[Fuc(a1-4)]GlcNAc(b1-3)[Fuc(a1-3)[Gal(b1-4)]GlcNAc(b1-6)]Gal(b1-4)Glc", "outline": "as §1"}, "[18]": {"biological_target": "Fuc(a1-2)Gal(b1-3)[Fuc(a1-4)]GlcNAc(b1-3)[Gal(b1-4)GlcNAc(b1-6)]Gal(b1-4)Glc", "outline": "as §1"}, "Fuc(a1-2)Gal(b1-4)Glc": {"biological_target": "Fuc(a1-2)Gal(b1-4)Glc", "outline": "as §1"}, "Fuc(a1-2)Gal(b1-4)Glc6S": {"biological_target": "Fuc(a1-2)Gal(b1-4)Glc6S", "outline": "as §1"}, "Fuc(a1-2)Gal(b1-4)GlcNAc": {"biological_target": "Fuc(a1-2)Gal(b1-4)GlcNAc", "outline": "as §1"}, "[19]": {"biological_target": "Fuc(a1-2)Gal(b1-4)GlcNAc(b1-2)Man", "outline": "as §1"}, "[20]": {"biological_target": "Fuc(a1-2)Gal(b1-4)GlcNAc(b1-2)Man(a1-3)[Fuc(a1-2)Gal(b1-4)GlcNAc(b1-2)Man(a1-6)]Man(b1-4)GlcNAc(b1-4)GlcNAc", "outline": "as §1"}, "[21]": {"biological_target": "Fuc(a1-2)Gal(b1-4)GlcNAc(b1-2)Man(a1-3)[Fuc(a1-2)Gal(b1-4)GlcNAc(b1-2)Man(a1-6)]Man(b1-4)GlcNAc(b1-4)[Fuc(a1-6)]GlcNAc", "outline": "as §1"}, "[22]": {"biological_target": "Fuc(a1-2)Gal(b1-4)GlcNAc(b1-2)[Fuc(a1-2)Gal(b1-4)GlcNAc(b1-4)]Man(a1-3)[Fuc(a1-2)Gal(b1-4)GlcNAc(b1-2)Man(a1-6)]Man(b1-4)GlcNAc(b1-4)GlcNAc", "outline": "as §1"}, "[23]": {"biological_target": "Fuc(a1-2)Gal(b1-4)GlcNAc(b1-3)Gal(b1-4)GlcNAc", "outline": "as §1"}, "[24]": {"biological_target": "Fuc(a1-2)Gal(b1-4)GlcNAc(b1-3)Gal(b1-4)GlcNAc(b1-2)Man(a1-3)[Fuc(a1-2)Gal(b1-4)GlcNAc(b1-3)Gal(b1-4)GlcNAc(b1-2)Man(a1-6)]Man(b1-4)GlcNAc(b1-4)GlcNAc", "outline": "as §1"}},
  "note": "This is one part of the list.",
  "data": [
    {"binder": "PX14343C-bfa-541-26-541 (Bacteroides fragilis) (protein) KAPLDEIADDSFWSDETLVKYYVNDLYSEISVDGLQLQENRSDNSVSAQRDKYRASWFKFNYDMVSASDPQDDDVWEDYYVKVRKCNRFFERIGTSTIEESEKSRLTGEVHFLRAMFYFEMVKRYGGVILLDKVLTMEDNWEIPRSSEKECYDFILEDLKKATEMLPASYGSREKGRATKGAAYALKSRVELYDKRYEDVIKSCAEVYKLGYELVDGTTPEKYRSIWWTTNKDNKEIIFDVQYKSPDVYNNMMVCNMVTYINDKYGDRGWGGLGPTQELIDAFEMADGTPATQYSQAPADQVFDINTCGIYEGREPRFYANIVFHGSQIFFNADKGAVTVDRYLMDTPDKGDGSLTGYNVWKWIDYDNYNYPYAGAGSPDFSTNWIILRYAEIYLNDAEARLETGDVEGARKAVNMIRQRVGLPDLTESDPEKLRELIRKERRIEFAFEEQRFYDVRRWKIGPETQTTLHGVRFVSPTEFKVTKTDIRTWNDRLYLTPVPHDEIVRSSVLKQNLGY", "values": [
      {"measurement": "glycan array binding signal (z-score)", "setting": "Fuc(a1-2)Gal", "value": -0.379},
      {"measurement": "glycan array binding signal (z-score)", "setting": "Fuc(a1-2)Gal(b1-3)GalNAc", "value": -0.421},
      {"measurement": "glycan array binding signal (z-score)", "setting": "[1]", "value": -0.517},
      {"measurement": "glycan array binding signal (z-score)", "setting": "[2]", "value": -0.217},
      {"measurement": "glycan array binding signal (z-score)", "setting": "[3]", "value": -0.342},
      {"measurement": "glycan array binding signal (z-score)", "setting": "[4]", "value": -0.159},
      {"measurement": "glycan array binding signal (z-score)", "setting": "[5]", "value": 1.52},
      {"measurement": "glycan array binding signal (z-score)", "setting": "Fuc(a1-2)Gal(b1-3)GlcNAc", "value": 0.399},
      {"measurement": "glycan array binding signal (z-score)", "setting": "[6]", "value": 1.8},
      {"measurement": "glycan array binding signal (z-score)", "setting": "[7]", "value": 0.448},
      {"measurement": "glycan array binding signal (z-score)", "setting": "[8]", "value": -0.05},
      {"measurement": "glycan array binding signal (z-score)", "setting": "[9]", "value": -0.679},
      {"measurement": "glycan array binding signal (z-score)", "setting": "[10]", "value": -0.053},
      {"measurement": "glycan array binding signal (z-score)", "setting": "[11]", "value": -0.066},
      {"measurement": "glycan array binding signal (z-score)", "setting": "[12]", "value": -0.122},
      {"measurement": "glycan array binding signal (z-score)", "setting": "[13]", "value": 0.633},
      {"measurement": "glycan array binding signal (z-score)", "setting": "[14]", "value": -0.507},
      {"measurement": "glycan array binding signal (z-score)", "setting": "[15]", "value": 0.062},
      {"measurement": "glycan array binding signal (z-score)", "setting": "[16]", "value": 0.403},
      {"measurement": "glycan array binding signal (z-score)", "setting": "[17]", "value": -0.524},
      {"measurement": "glycan array binding signal (z-score)", "setting": "[18]", "value": -0.285},
      {"measurement": "glycan array binding signal (z-score)", "setting": "Fuc(a1-2)Gal(b1-4)Glc", "value": -1.08},
      {"measurement": "glycan array binding signal (z-score)", "setting": "Fuc(a1-2)Gal(b1-4)Glc6S", "value": 0.086},
      {"measurement": "glycan array binding signal (z-score)", "setting": "Fuc(a1-2)Gal(b1-4)GlcNAc", "value": -0.892},
      {"measurement": "glycan array binding signal (z-score)", "setting": "[19]", "value": -0.373},
      {"measurement": "glycan array binding signal (z-score)", "setting": "[20]", "value": -0.29},
      {"measurement": "glycan array binding signal (z-score)", "setting": "[21]", "value": 0.075},
      {"measurement": "glycan array binding signal (z-score)", "setting": "[22]", "value": 0.146},
      {"measurement": "glycan array binding signal (z-score)", "setting": "[23]", "value": 0.048},
      {"measurement": "glycan array binding signal (z-score)", "setting": "[24]", "value": -0.646}
    ]}
  ]
}
